Publication PMC10238393 (2023)

Molecular target: LPHN2 Lec/Olf domain (human)
Assay: ELISA; solid-phase binding assay: LPHN2 extracellular domain variants (100 nM) coated on MaxiSorp 96-well plates, 1 h room temperature, blocked with 1% BSA; 0.001-10 μM LRG1 forms added; detected with anti-LRG1 antibody and peroxidase-conjugated secondary antibody; both purified

B1: LRG1 N325D mutant (protein, UniProt P02750 36-347)
chain: VTLSPKDCQVFRSDHGSSISCQPPAEIPGYLPADTVHLAVEFFNLTHLPANLLQGASKLQELHLSSNGLESLSPEFLRPVPQLRVLDLTRNALTGLPPGLFQASATLDTLVLKENQLEVLEVSWLHGLKALGHLDLSGNRLRKLPPGLLANFTLLRTLDLGENQLETLPPDLLRGPLQLERLHLEGNKLQVLGKDLLLPQPDLRYLFLNGNKLARVAAGAFQGLRQLDMLDLSNNSLASVPEGLWASLGQPNWDMRDGFDISGNPWICDQNLSDLYRWLQAQKDKMFSQDDTRCAGPEAVKGQTLLAVAKSQ
With B1 the binding was “binds”.

These are yes or no findings as the source states them, for the method shown. Binding can be weak; no strength is given.
